Source: PubChem BioAssay AID2551 (National Center for Advancing Translational Sciences (NCATS), 2010)
In all, about 310,000 compounds went through this assay and about 17,000 (5.5%) were called active. Inconclusive results, whose numbers are uncertain, are shown with a selection of clear calls. Calls follow the shape of the dose curve; as a rule, active = well fitted inhibition curve with a large enough effect; inconclusive = small, poorly fitted or top-dose-only effect, or effect the other way; inactive = no such curve, though single readings can be large or run the other way. Potencies beside an inconclusive call are fits to weak or partial responses and may not hold up.

Amino acid sequences for entries named in this document (tags omitted). A change or cut given only in a name is not applied to a line headed by its entry.
UniProt P51450: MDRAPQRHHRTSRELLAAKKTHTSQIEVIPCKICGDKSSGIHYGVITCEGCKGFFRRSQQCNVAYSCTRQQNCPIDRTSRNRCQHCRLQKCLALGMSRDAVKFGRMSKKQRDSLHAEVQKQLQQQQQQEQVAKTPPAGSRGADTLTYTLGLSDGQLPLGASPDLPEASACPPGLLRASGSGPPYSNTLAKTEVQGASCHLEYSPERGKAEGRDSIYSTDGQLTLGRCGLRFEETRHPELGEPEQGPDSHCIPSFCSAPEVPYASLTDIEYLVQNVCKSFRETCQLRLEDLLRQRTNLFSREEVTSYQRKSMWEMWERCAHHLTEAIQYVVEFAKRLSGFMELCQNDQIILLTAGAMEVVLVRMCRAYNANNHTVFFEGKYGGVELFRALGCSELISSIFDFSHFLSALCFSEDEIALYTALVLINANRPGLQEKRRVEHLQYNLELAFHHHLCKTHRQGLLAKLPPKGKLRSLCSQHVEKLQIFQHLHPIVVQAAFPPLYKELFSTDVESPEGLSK

molecular target: Nuclear receptor ROR-gamma (Mus musculus) (UniProt P51450); assay: qHTS for inhibitors of ROR gamma transcriptional activity; settings: Drosophila S2 Gal4-RORgamma UAS-luciferase reporter, 20 h; activity change, negative = inhibition: at 53.6 µM (top of the series); also: nearly all actives have a fitted effect of over 60% in size
In short: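 Luciferase reporter read in Schneider cells carrying Gal4-RORγ (mouse) and UAS-Photinus luciferase; cells given compound 1 h before 700 uM copper sulfate induction, then incubated 20 h at ambient temperature.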
% is scaled to controls: 0 for no effect and ±100 for the full control effect; potency is read from the fitted curve at half-maximal effect.

SMILES	Potency	activity change, negative = inhibition
CC(C)(C)c1ccc(OCC(=O)Nc2ccncc2)cc1	inconclusive: 14.1 µM [activator, partial curve]	–
CSc1ccc(N2CCN(CCCNC(=O)Nc3ccccc3F)CC2)cc1	–	inactive: -7.18%
CCC(CC)c1nc2ccccc2c(=O)[nH]1	–	inactive: -0.716%
O=C(c1ccc(Cl)nc1)N1CCC(Cc2ccccc2)CC1	inconclusive: 22.4 µM [activator, partial curve, poor fit]	–
CCOc1ccc(NC(=O)CCN2C(=S)NC(C)(C)CC2C)cc1 (configuration not stated)	inconclusive: 20 µM [inhibitor, single point]	–
CC(C)CCNC(=O)Cn1c(=O)oc2cc(S(=O)(=O)N3CC(C)CC(C)C3)ccc21 (configuration not stated)	inconclusive: 11.2 µM [inhibitor, single point]	–
COc1cc(C2c3c(oc4cc(C)c(C)cc4c3=O)C(=O)N2c2cc(C)ccn2)ccc1O (configuration not stated)	inconclusive: 0.0045 µM [activator, full curve, poor fit]	–
CCOC(=O)c1cc(/C(C)=N/OC(=O)c2ccc(C(C)(C)C)cc2)on1	–	inactive: -2.47%
NC(=S)N/N=C\c1ccc(-c2cccc(Cl)c2Cl)o1	active: 0.891 µM	–
Cc1onc(-c2ccccc2)c1C(=O)N/N=C/c1ccco1	inconclusive: 22.4 µM [inhibitor, single point]	–
N/C(=N\OC(=O)c1ccccc1Cl)c1ccncc1	inconclusive: 35.5 µM [inhibitor, single point]	–
Cc1cccc(NC(=S)N2CCC(C(=O)c3ccc(F)cc3)CC2)c1C	inconclusive: 17.8 µM [inhibitor, single point]	–
CCOC(=O)C1CSC(Cc2ccc(OCc3ccc([N+](=O)[O-])cc3)cc2)N1 (configuration not stated)	active: 14.1 µM	–
O=C(/C=C/c1cccs1)Nc1nc(-c2ccccc2)cs1	inconclusive: 0.158 µM [activator, full curve, poor fit]	–
COc1ccc2c(c1)C(c1cccs1)=NNC(c1cccnc1)=N2	inconclusive: 20 µM [inhibitor, single point]	–
O=[N+]([O-])c1ccc(CSc2nc3ccccc3[nH]2)cc1	inconclusive: 8.91 µM [activator, partial curve]	–
Cc1nc(N2CCN(c3ccccc3O)CC2)c2c(-c3ccccc3)csc2n1	inconclusive: 20 µM [activator, single point]	–
CN(C)N=Nc1nc2c(c(=O)n(C)c(=O)n2C)n1C	–	inactive: -13.6%
COc1c(Br)cc(/C=N/n2c(-c3ccccc3)n[nH]c2=S)c(O)c1Br	active: 12.6 µM	–
CCCCNCc1cc(OCC)c(OCC(N)=O)cc1Br	–	inactive: -6.49%
COc1ccc(OC(=O)COc2ccc(Cl)cc2)cc1	–	inactive: 11.3%
Cc1ccc2cccc(S(=O)(=O)Nc3c(C)n(C)n(-c4ccccc4)c3=O)c2n1	–	inactive: -25.4%
O=C(CCn1c(=O)oc2ccccc21)N(Cc1ccccc1)c1ccccc1	inconclusive: 11.2 µM [activator, single point]	–
CCOC(=O)c1ccc2nc(Nc3nc4ccc(F)cc4s3)sc2c1	active: 0.794 µM	–

SMILES	Potency	activity change, negative = inhibition
COc1ccc(NS(=O)(=O)c2ccc(NC(=O)c3ccc(N(C)S(C)(=O)=O)cc3)cc2)c(OC)c1	inconclusive: 12.6 µM [inhibitor, single point]	–
COc1ccc(N(C)S(=O)(=O)c2cccc(C(=O)OCC(=O)NCc3ccccc3OC)c2)cc1	inconclusive: 1.12 µM [inhibitor, full curve]	–
c1ccc(-c2nnc(CSc3nnc(-c4ccncc4)n3Cc3ccco3)o2)cc1	inconclusive: 15.8 µM [activator, single point]	–
O=c1c2c(nc3cc(-c4ccc(F)cc4)[nH]n13)CCCC2	active: 8.91 µM	–
C[C@H](NC(=O)c1nc[nH]c1C(=O)N[C@@H](C)c1ccccc1)C(=O)OC(C)(C)C	active: 2.82 µM	–
CCN(CCO)Cc1cc(=O)oc2c(C)c(C)ccc12	–	inactive: -15.5%
CC1CCCC(NC(=O)CCC(=O)NCc2ccccc2)C1C (configuration not stated)	–	inactive: -14.2%
CCOC(=O)c1sc2ccccc2c1OC(=O)c1ccccc1OC	inconclusive: 10 µM [activator, partial curve, poor fit]	–
CC(CN1CCCC1)OC(=O)c1cccc(F)c1 (configuration not stated)	–	inactive: -1.36%
COC(=O)c1c(NC(=O)CSc2nc3ccccc3c(=O)n2Cc2ccco2)sc(C)c1C	inconclusive: 0.501 µM [activator, full curve]	–
O=C(Nc1cc(S(=O)(=O)Nc2ccc(Cl)cc2)ccc1N1CCCCC1)c1ccc(F)cc1	inconclusive: 12.6 µM [activator, partial curve]	–
CC1=NOC(=O)/C1=C\c1ccc(-c2cccc(Cl)c2)o1	inconclusive: 31.6 µM [inhibitor, single point]	–
Cc1cc(NC(=O)Nc2ccc(F)cc2)no1	–	inactive: -1.67%
CC(=O)Nc1cccc(OCCCOc2ccc([N+](=O)[O-])cc2)c1	inconclusive: 11.2 µM [activator, partial curve]	–
COc1cccc(C(=O)NNC(=O)c2cccc(F)c2)c1	inconclusive: 0.224 µM [activator, single point]	–
CCOC(=O)c1cc(-c2ccc(OC)cc2F)nc2c1c(C)nn2CCC#N	–	inactive: 25%
Cc1cc(NC(=O)CCc2ccc(S(=O)(=O)N3CCOCC3)cc2)n(-c2ccccc2)n1	inconclusive: 35.5 µM [activator, single point]	–
O=c1[nH]c(-c2ccccn2)cc2ccccc12	active: 5.01 µM	–
Cc1nc2c(-c3ccccc3)c(C)nn2c(N)c1-c1ccccc1	inconclusive: 6.31 µM [activator, single point]	–
COCCN(C(=O)c1ccco1)c1nnc(-c2ccc(OC)c(OC)c2)s1	inconclusive: 0.1 µM [activator, full curve]	–
CCc1ccc(NC(=S)N2CCN(c3cccc(C(F)(F)F)c3)CC2)cc1	active: 12.6 µM	–
CCOC(=O)c1sc(NC(=O)c2ccco2)nc1-c1ccccc1	inconclusive: 35.5 µM [inhibitor, single point]	–
O=C(Nc1ccc(C(=O)Oc2ccccc2)c(O)c1)c1ccccc1	inconclusive: 11.2 µM [activator, partial curve]	–

Three records picked at random from those above:
SMILES	Potency	activity change, negative = inhibition
Cc1nc2c(-c3ccccc3)c(C)nn2c(N)c1-c1ccccc1	inconclusive: 6.31 µM [activator, single point]	–
COc1ccc(NS(=O)(=O)c2ccc(NC(=O)c3ccc(N(C)S(C)(=O)=O)cc3)cc2)c(OC)c1	inconclusive: 12.6 µM [inhibitor, single point]	–
COC(=O)c1c(NC(=O)CSc2nc3ccccc3c(=O)n2Cc2ccco2)sc(C)c1C	inconclusive: 0.501 µM [activator, full curve]	–
